These are yes or no findings as the source states them, for the method shown. Binding seen in cells or lysates may run through a third protein. Some binding calls cover weakened binding; strength is not graded here. Where a sequence is shown, tags or fusion partners need not be part of it.
T1: Myc-IGSF9 (UniProt Q05BQ1)
T1 sequence: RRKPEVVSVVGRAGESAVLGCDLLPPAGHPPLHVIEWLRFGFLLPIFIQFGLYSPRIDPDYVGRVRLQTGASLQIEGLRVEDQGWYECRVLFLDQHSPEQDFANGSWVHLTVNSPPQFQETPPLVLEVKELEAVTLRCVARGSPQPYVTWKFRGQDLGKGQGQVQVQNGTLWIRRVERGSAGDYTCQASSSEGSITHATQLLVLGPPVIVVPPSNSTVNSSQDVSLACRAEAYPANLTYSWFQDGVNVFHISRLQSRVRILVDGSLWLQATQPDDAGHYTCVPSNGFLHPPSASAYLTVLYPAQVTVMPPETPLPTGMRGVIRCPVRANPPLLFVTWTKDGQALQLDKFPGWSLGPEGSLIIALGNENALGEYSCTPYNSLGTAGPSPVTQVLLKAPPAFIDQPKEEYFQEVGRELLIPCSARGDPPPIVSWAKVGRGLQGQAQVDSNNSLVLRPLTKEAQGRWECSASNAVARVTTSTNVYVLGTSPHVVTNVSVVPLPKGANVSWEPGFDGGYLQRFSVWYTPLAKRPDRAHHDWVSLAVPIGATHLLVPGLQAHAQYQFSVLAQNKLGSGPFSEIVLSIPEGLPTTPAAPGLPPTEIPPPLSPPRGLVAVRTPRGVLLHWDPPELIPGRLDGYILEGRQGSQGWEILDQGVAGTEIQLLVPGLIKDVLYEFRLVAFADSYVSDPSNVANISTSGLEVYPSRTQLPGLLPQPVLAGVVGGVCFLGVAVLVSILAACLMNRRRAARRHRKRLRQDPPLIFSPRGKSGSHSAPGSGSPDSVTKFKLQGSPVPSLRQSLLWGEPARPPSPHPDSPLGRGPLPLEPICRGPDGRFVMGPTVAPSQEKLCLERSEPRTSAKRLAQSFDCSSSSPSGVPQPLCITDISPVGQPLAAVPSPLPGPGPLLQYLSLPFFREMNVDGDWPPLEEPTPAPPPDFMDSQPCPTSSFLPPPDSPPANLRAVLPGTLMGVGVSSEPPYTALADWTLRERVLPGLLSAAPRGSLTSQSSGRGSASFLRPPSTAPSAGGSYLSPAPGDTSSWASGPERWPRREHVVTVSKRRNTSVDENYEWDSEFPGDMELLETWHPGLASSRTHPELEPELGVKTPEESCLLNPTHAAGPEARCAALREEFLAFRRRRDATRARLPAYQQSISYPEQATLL

T2: GST-FAK (1-355) fusion protein (UniProt Q05397)
T2 sequence: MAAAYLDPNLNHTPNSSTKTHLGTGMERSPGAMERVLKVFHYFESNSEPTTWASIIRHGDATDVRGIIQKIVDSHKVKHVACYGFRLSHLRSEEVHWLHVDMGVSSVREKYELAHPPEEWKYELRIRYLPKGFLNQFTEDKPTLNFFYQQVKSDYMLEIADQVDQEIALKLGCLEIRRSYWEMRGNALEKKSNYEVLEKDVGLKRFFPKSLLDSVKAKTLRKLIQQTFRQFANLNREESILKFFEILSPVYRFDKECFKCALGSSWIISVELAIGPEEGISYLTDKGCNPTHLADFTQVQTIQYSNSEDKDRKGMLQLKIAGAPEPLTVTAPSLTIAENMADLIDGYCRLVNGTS


Legend:
Myc-IGSF9 = biological target: T1, Myc-IGSF9; assay: co-IP; HEK-293T cells transfected with tagged plasmids; lysates immunoprecipitated with anti-myc mouse monoclonal antibody or normal IgG, protein A/G beads, overnight at 4 °C; western blot
[1] = biological target: T2, GST-FAK (1-355) fusion protein; assay: pull-down; GST or GST-FAK (1-355) on Glutathione-Sepharose 4B beads incubated with in vitro translated IGSF9; washed, eluted, western blot; only the target purified

Binder	binding (Myc-IGSF9)	binding [1]
HA-tagged FAK (1-355 aa) (domain or fragment, UniProt Q05397 1-355) MAAAYLDPNLNHTPNSSTKTHLGTGMERSPGAMERVLKVFHYFESNSEPTTWASIIRHGDATDVRGIIQKIVDSHKVKHVACYGFRLSHLRSEEVHWLHVDMGVSSVREKYELAHPPEEWKYELRIRYLPKGFLNQFTEDKPTLNFFYQQVKSDYMLEIADQVDQEIALKLGCLEIRRSYWEMRGNALEKKSNYEVLEKDVGLKRFFPKSLLDSVKAKTLRKLIQQTFRQFANLNREESILKFFEILSPVYRFDKECFKCALGSSWIISVELAIGPEEGISYLTDKGCNPTHLADFTQVQTIQYSNSEDKDRKGMLQLKIAGAPEPLTVTAPSLTIAENMADLIDGYCRLVNGTS	binds	–
In vitro-translated IGSF9 (1-493 aa) (domain or fragment, UniProt Q05BQ1 1-493) MIWCLRLTVLSLIISQGADGRRKPEVVSVVGRAGESAVLGCDLLPPAGHPPLHVIEWLRFGFLLPIFIQFGLYSPRIDPDYVGRVRLQTGASLQIEGLRVEDQGWYECRVLFLDQHSPEQDFANGSWVHLTVNSPPQFQETPPLVLEVKELEAVTLRCVARGSPQPYVTWKFRGQDLGKGQGQVQVQNGTLWIRRVERGSAGDYTCQASSSEGSITHATQLLVLGPPVIVVPPSNSTVNSSQDVSLACRAEAYPANLTYSWFQDGVNVFHISRLQSRVRILVDGSLWLQATQPDDAGHYTCVPSNGFLHPPSASAYLTVLYPAQVTVMPPETPLPTGMRGVIRCPVRANPPLLFVTWTKDGQALQLDKFPGWSLGPEGSLIIALGNENALGEYSCTPYNSLGTAGPSPVTQVLLKAPPAFIDQPKEEYFQEVGRELLIPCSARGDPPPIVSWAKVGRGLQGQAQVDSNNSLVLRPLTKEAQGRWECSASNAVA	–	binds

From paper PMC9546770
